{"source": "patent EP1455919B1", "about": "“IODINE EXTRACTION METHOD” (Commissariat à l'Énergie Atomique et aux Énergies …, priority 2001, dated 2003)", "assay": "Iodine transport through a microporous polypropylene membrane impregnated with the organic solvent (supported liquid membrane)", "format": "physicochemical", "key": {"[1]": {"conditions": "Example 7, after 6 h, HNO3 3 mol/L, iodine 1500 kBq/L, soude 10^-1 mol/L, % of initial iodine"}, "[2]": {"conditions": "Example 8, after 1 h, acide iodhydrique 10^-3 mol/L added, soude 0,44 mol/L"}, "[3]": {"conditions": "Example 8, after 2 h, acide iodhydrique 10^-3 mol/L added, soude 0,44 mol/L"}}}
{"compound": "CCCCCCOc1ccccc1[N+](=O)[O-]", "note": "[1,2-NPHE, 1,2-nitrophénylhexyléther]", "values": [{"measurement": "iode extrait de la solution d'acide nitrique", "setting": "[1]", "result": "> 80", "unit": "%"}, {"measurement": "iode réextrait vers la solution de soude", "setting": "[1]", "result": "> 80", "unit": "%"}, {"measurement": "iode extrait de la solution d'acide nitrique", "setting": "[2]", "result": 95, "unit": "%"}, {"measurement": "iode réextrait vers la solution de soude", "setting": "[2]", "result": "~95", "unit": "%"}, {"measurement": "iode extrait", "setting": "[3]", "result": "> 99", "unit": "%"}, {"measurement": "iode réextrait", "setting": "[3]", "result": "> 99", "unit": "%"}]}
